These are yes or no findings as the source states them, for the method shown. Binding can be weak; no strength is given.
Key:
Assay in all cases: two-hybrid; Bacterio-Match II bacterial two-hybrid in an E. coli reporter strain (derivative of XL1-Blue MRF'); hybrids with lambda cI-NTD (pBT) and RNAP alpha-NTD (pTRG), vector swaps; HIS3 reporter, selective plates with 5 mM 3-AT, 50 uM IPTG, 24 h at 37°C then 48 h at 28°C; CFU ratio selective/nonselective normalised to the RpoS/RssB interaction
PdeR (E. coli K-12) = molecular target: T1, PdeR (E. coli K-12) (UniProt P77334)
T1 sequence: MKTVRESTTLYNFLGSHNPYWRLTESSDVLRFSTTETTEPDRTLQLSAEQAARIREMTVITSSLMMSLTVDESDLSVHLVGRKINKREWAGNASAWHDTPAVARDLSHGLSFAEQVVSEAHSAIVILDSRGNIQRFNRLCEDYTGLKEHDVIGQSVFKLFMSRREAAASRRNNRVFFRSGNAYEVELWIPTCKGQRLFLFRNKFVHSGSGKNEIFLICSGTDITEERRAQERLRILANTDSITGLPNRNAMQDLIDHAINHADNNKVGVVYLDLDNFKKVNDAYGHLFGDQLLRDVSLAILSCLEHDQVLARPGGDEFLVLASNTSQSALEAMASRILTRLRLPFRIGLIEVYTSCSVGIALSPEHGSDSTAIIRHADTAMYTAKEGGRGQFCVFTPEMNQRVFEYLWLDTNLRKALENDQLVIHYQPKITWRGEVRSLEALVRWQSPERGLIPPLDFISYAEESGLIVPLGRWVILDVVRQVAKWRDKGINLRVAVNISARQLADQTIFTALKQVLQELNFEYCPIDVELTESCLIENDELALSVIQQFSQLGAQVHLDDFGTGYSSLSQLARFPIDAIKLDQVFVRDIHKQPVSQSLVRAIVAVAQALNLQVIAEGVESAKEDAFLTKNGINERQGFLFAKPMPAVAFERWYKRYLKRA

[1] = molecular target: T2, isolated EAL domain of PdeR (E. coli K-12) (UniProt P77334)
T2 sequence: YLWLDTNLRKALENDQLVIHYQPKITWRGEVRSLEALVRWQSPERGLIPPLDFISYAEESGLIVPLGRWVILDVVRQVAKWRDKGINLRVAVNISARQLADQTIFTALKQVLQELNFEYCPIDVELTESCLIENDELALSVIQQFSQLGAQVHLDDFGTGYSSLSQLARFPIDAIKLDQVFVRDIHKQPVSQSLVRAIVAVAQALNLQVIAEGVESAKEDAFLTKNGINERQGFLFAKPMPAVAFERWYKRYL

[2] = molecular target: T3, isolated degenerate GGDEF domain of PdeR (E. coli K-12) (UniProt P77334)
T3 sequence: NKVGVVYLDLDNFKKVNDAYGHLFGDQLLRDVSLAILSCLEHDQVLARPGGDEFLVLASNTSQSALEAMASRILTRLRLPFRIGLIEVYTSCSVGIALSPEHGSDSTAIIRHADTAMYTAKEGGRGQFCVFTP

Row | binding (PdeR (E. coli K-12)) | binding [1] | binding [2] | Substance
1 | binds |  |  | DgcE (entire cytoplasmic region) (E. coli K-12) (domain or fragment)
2 |  | binds | binds | oxygen-sensing globin sensor domain of DgcO (E. coli K-12) (domain or fragment)
3 | binds |  |  | DgcN (entire cytoplasmic region) (E. coli K-12) (domain or fragment)

Source: PMC5635695, “More than Enzymes That Make or Break Cyclic Di-GMP—Local Signaling in the Interactome of GGDEF/EAL Domain Proteins of Escherichia coli” (mBio, 2017)
